According to article PMC4004549:
Results are given in words; binding and its absence hold for the method and conditions named. Binding seen in cells or lysates may run through a third protein.

Target: T1, muscleblind-like protein 1 (MBNL1) (human (endogenous in DM1 patient fibroblasts)) (UniProt Q9NR56)
T1 sequence: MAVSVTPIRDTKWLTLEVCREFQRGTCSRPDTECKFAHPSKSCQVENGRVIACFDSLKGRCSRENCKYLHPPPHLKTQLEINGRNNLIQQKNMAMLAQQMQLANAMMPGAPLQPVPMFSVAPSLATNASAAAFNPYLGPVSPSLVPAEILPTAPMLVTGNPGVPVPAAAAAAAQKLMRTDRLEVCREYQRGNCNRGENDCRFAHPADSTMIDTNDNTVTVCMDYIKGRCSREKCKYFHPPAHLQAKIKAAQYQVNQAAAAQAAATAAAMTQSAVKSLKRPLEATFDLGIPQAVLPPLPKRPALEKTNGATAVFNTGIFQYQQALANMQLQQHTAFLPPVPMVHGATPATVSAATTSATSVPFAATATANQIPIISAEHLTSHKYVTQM
Assay: FRET or BRET; acceptor photobleaching FRET (AP-FRET) in fixed, permeabilised DM1 fibroblasts; endogenous proteins labelled by primary antibodies and Alexa488 or Alexa555 secondary antibodies; E% distribution compared with donor-only control; which protein was donor is not told

- binding: no binding
Substance: hnRNPH
